Test results from PubChem BioAssay AID540256 (National Center for Advancing Translational Sciences (NCATS), 2011).
The campaign covered roughly 300,000 compounds. About 3,700 (1.2%) were called active. Inconclusive means that the source gave no clear call. Such entries were picked first, then a sample of the others. The call rests on the fitted dose curve; tested in HEK293 cells. A potency beside an inconclusive call is a rough fit, not a confirmed value.

experiment: qHTS for Inhibitors of binding or entry into cells for Lassa Virus; settings: Lassa virus pseudotype entry inhibition, cell reporter; activity change, negative = inhibition: at 37.9 µM (top of the series) unless noted; further: nearly all actives have a fitted effect of over 50% in size
On the % scale 0 is the no-effect control and ±100 the full control effect; potency means the concentration at half of the fitted maximal effect.

| Compound | Potency | activity change, negative = inhibition |
| --- | --- | --- |
| CCOc1ccc(OCC)c(NC(=O)c2nnn(CC(=O)Nc3cc(C)cc(C)c3)c2N)c1 | inconclusive: 7.08 µM [inhibitor, partial curve] | – |
| CCOCCCNC(=O)c1ccc2c(c1)ncn2-c1ccc(C)cc1C | inconclusive: 5.62 µM [inhibitor, full curve] | – |
| Cc1ccc2[nH]c(CSc3nnc(NC(=O)COc4ccccc4C)s3)cc(=O)c2c1 | – | inconclusive: 49.6% [activator] [at 46.1 µM] |
| CCOc1cc(/C=N/NC(=O)C(N)=O)cc(Br)c1O | inconclusive: 20 µM [activator, single point] | – |
| Cc1nc2cc(-c3ccccc3)nn2c(C)c1CCC(=O)NCCc1ccccc1 | – | inactive: -3.24% [at 46.1 µM] |
| c1ccc2c(N3CCNCC3)nsc2c1 | inconclusive: 5.01 µM [inhibitor, full curve] | – |
| N#C/C(=C/c1ccc(N2CCCCC2)o1)C(=O)Nc1ccc(Cl)cc1 | inconclusive: 2.59 µM [activator, full curve, poor fit] | – |
| Cc1cccc(N2CCN(C(=O)N3CCOCC3)CC2)c1C | inconclusive: 3.16 µM [inhibitor, full curve] | – |
| Cn1c2c(c(=O)n(C)c1=O)C(c1cc(Br)ccc1F)CC(=O)N2 (centres undefined) | inconclusive: 0.631 µM [inhibitor, full curve, poor fit] | – |
| CCOc1ccc(NC(=O)c2nnn(CC(=O)Nc3ccccc3OCC)c2N)cc1 | – | inactive: 0.957% |
| COc1ccc(Cn2c(=S)[nH]c3cc(OC)c(OC)cc3c2=O)cc1 | – | inactive: 6.38% |
| COc1cc(OC)c(CN2CCc3c([nH]c4ccccc34)C2)cc1Br | inconclusive: 5.62 µM [inhibitor, single point] | – |
| O=C(CNc1ccc2c(c1)OCO2)N/N=C\c1cn(Cc2ccc(F)cc2)c2ccccc12 | inconclusive: 16.4 µM [inhibitor, single point] | – |
| CCc1ccccc1NS(=O)(=O)c1ccc(-c2coc(C)n2)cc1 | inconclusive: 3.16 µM [activator, single point] | – |
| CS/C(=N\S(=O)(=O)c1cccs1)NC(=O)CSc1nc2ccccc2s1 | inactive | – |
| O=C(N/N=C/c1cccnc1)c1ccc2c(c1)OCCO2 | inconclusive: 29.1 µM [inhibitor, single point] | – |
| COc1ccccc1Oc1ccc(N/C=C/C(=O)C(C)(C)C)cc1 | – | inactive: 0.784% [at 46.1 µM] |
| O=C(NNC(=O)OCc1ccccc1)OCc1ccccc1 | inconclusive: 11.2 µM [inhibitor, partial curve, poor fit] | – |
| Cc1ccc(NC(=O)c2ccc(Cl)c(S(=O)(=O)N3CCCC3)c2)nc1 | – | inactive: -12.3% [at 46.1 µM] |
| CC(C)c1nc2ccc(C(=O)NCc3ccc(F)cc3)cc2o1 | – | inactive: -1.59% [at 46.1 µM] |
| O=C1c2ccccc2C(=O)C1c1nccc2ccccc12 | inconclusive: 3.16 µM [inhibitor, full curve, poor fit] | – |
| COc1ccc(-c2ccc3c(N)c(C(=O)Nc4ccc(C)cc4C)sc3n2)cc1OC | – | inactive: -1.78% [at 46.1 µM] |
| N#Cc1sc2nc(C3CC3)cc(-c3ccccc3)c2c1N | – | inactive: -22.7% |

Sorted by heavy-atom count (rising): eleven of the compounds above

| Compound | Potency | activity change, negative = inhibition |
| --- | --- | --- |
| c1ccc2c(N3CCNCC3)nsc2c1 | inconclusive: 5.01 µM [inhibitor, full curve] | – |
| CCOc1cc(/C=N/NC(=O)C(N)=O)cc(Br)c1O | inconclusive: 20 µM [activator, single point] | – |
| O=C(N/N=C/c1cccnc1)c1ccc2c(c1)OCCO2 | inconclusive: 29.1 µM [inhibitor, single point] | – |
| O=C(NNC(=O)OCc1ccccc1)OCc1ccccc1 | inconclusive: 11.2 µM [inhibitor, partial curve, poor fit] | – |
| CC(C)c1nc2ccc(C(=O)NCc3ccc(F)cc3)cc2o1 | – | inactive: -1.59% [at 46.1 µM] |
| COc1ccccc1Oc1ccc(N/C=C/C(=O)C(C)(C)C)cc1 | – | inactive: 0.784% [at 46.1 µM] |
| COc1cc(OC)c(CN2CCc3c([nH]c4ccccc34)C2)cc1Br | inconclusive: 5.62 µM [inhibitor, single point] | – |
| CCOCCCNC(=O)c1ccc2c(c1)ncn2-c1ccc(C)cc1C | inconclusive: 5.62 µM [inhibitor, full curve] | – |
| Cc1nc2cc(-c3ccccc3)nn2c(C)c1CCC(=O)NCCc1ccccc1 | – | inactive: -3.24% [at 46.1 µM] |
| Cc1ccc2[nH]c(CSc3nnc(NC(=O)COc4ccccc4C)s3)cc(=O)c2c1 | – | inconclusive: 49.6% [activator] [at 46.1 µM] |
| O=C(CNc1ccc2c(c1)OCO2)N/N=C\c1cn(Cc2ccc(F)cc2)c2ccccc12 | inconclusive: 16.4 µM [inhibitor, single point] | – |

(further entries)

| Compound | Potency | activity change, negative = inhibition |
| --- | --- | --- |
| COc1cccc(CN2CCN(Cc3cc(OC)c(OC)cc3OC)CC2)c1 | inconclusive: 1 µM [inhibitor, partial curve, poor fit] | – |
| CCOC(=O)/C(C#N)=C1/C=CN(c2ccc(C)cc2)C=N1 | – | inactive: 32.1% |
| CC(=O)Nc1ccc(NC(=O)C(C)OC(=O)C(C)SCC(=O)Nc2ccc(C)cc2)cc1 (centres undefined) | inconclusive: 35.5 µM [inhibitor, single point] | – |
| Cc1nn(C)c(C)c1N1C(=O)c2cccc3c(N)ccc(c23)C1=O | – | inactive: -1.25% |
| CCN(CC)CCNC(=O)c1ccc2c(c1)NC(=O)C(CS(=O)(=O)Cc1ccc(F)cc1Cl)N2 (centres undefined) | inconclusive: 2.24 µM [inhibitor, partial curve, poor fit] | – |
| Cc1cccc(C)c1NC(=O)C[n+]1cc(-c2ccccc2)n2c1CCC2 | – | inactive: 4.35% |
| CCn1cc(C(=O)NCCCN2CCC(C)CC2)c(=O)c2cc(S(=O)(=O)N(C)C3CCCCC3)ccc21 | inconclusive: 6.31 µM [activator, partial curve] | – |
| CNc1nc(-c2ccccn2)nnc1-c1ccccc1 | inconclusive: 17.8 µM [inhibitor, single point] | – |
| FC(F)(F)c1cnc(Sc2ncn[nH]2)c(Cl)c1 | – | inactive: 10.3% [at 46.1 µM] |
| O=C(N/N=C/C1=C(N2CCOCC2)C(=C\c2ccccc2)/CC1)Nc1ccccc1 | – | inactive: -5.16% |
| N#C/C(=C\c1cccs1)C(=O)NCc1ccco1 | inconclusive: 14.1 µM [activator, single point] | – |
| CC(C)(C)NCCC(O)c1cc(C(F)(F)F)nc2c(C(F)(F)F)cccc12 (centres undefined) | inconclusive: 35.5 µM [inhibitor, single point] | – |
| O=C(NCc1ccc(F)cc1)C1CC(=O)N(C2CCCCC2)C1 (centres undefined) | inconclusive: 35.5 µM [activator, single point] | – |
| CCN(CC)CCN1CCn2c3c(c4cc(C)ccc42)CCCC31 (centres undefined) | inconclusive: 32.6 µM [inhibitor, single point] | – |
| O=C(O)c1cc(S(=O)(=O)N2CCCCC2)ccc1N1CCCCC1 | inconclusive: 5.62 µM [activator, full curve, poor fit] | – |
| COc1ccc(Cn2nnnc2C(c2cccnc2)N2CCN(c3ccc(O)cc3)CC2)cc1 (centres undefined) | inconclusive: 0.164 µM [inhibitor, full curve, poor fit] | – |
| CC(C)Cc1nc2oc3c(NCCCN4CCOCC4)ncnc3c2c2c1CCC2 | inconclusive: 29.1 µM [inhibitor, single point] | – |
| O=C(CSc1cccc[n+]1[O-])c1cc2ccccc2o1 | inconclusive: 5.62 µM [activator, single point] | – |
| O=C(Nc1ccc(S(=O)(=O)N2CCCC2)cc1)c1ccc(Br)o1 | inconclusive: 11.2 µM [inhibitor, partial curve, poor fit] | – |
| CCOC(=O)c1c(-c2ccc(F)cc2)csc1NC(=O)CN1C(=O)NC2(CCCCC2C)C1=O (centres undefined) | inconclusive: 23.1 µM [inhibitor, single point] | – |
| Cc1cc(C)c(/C=C/c2onc(C)c2S(=O)(=O)N2CCC(C(=O)NCC(C)c3ccccc3)CC2)c(C)c1 (centres undefined) | inconclusive: 35.5 µM [inhibitor, single point] | – |
| CCOC(=O)c1ccc2nc(NC(C)=O)sc2c1 | inconclusive: 8.91 µM [inhibitor, partial curve, poor fit] | – |
| O=C(CN1C2=NCCCN2c2ccccc21)c1ccc(Cl)cc1Cl | inconclusive: 17.8 µM [inhibitor, single point] | – |

2 of these compounds, reformatted:
Compound,Potency,"activity change, negative = inhibition"
Cc1cccc(C)c1NC(=O)C[n+]1cc(-c2ccccc2)n2c1CCC2,–,inactive: 4.35%
FC(F)(F)c1cnc(Sc2ncn[nH]2)c(Cl)c1,–,inactive: 10.3% [at 46.1 µM]

Additional structures

| Compound | Potency | activity change, negative = inhibition |
| --- | --- | --- |
| O=S(=O)(c1ccc(Cl)c(NC(=S)N/N=C/c2ccc(O)cc2)c1)N1CCOCC1 | active: 11.6 µM | – |
| O=C(NCc1ccco1)c1ccc(Cn2c(=O)c3ccccc3n(Cc3ccc(Cl)cc3)c2=O)cc1 | – | inactive: -17.1% |
| Cc1ccc(NC(=O)c2c(C)oc3ccc(O)c(CN4CCCCC4)c23)cc1 | inconclusive: 35.5 µM [inhibitor, single point] | – |
| CCOC(=O)N1CCN(C(=O)c2c[nH]c3ccc(S(=O)(=O)N(C)c4ccccc4C)cc3c2=O)CC1 | inconclusive: 14.1 µM [activator, partial curve, poor fit] | – |
| CCOC(=O)C1C(=O)C=C(c2ccc(Br)cc2)CC1c1ccco1 (centres undefined) | active: 14.6 µM | – |
| Cn1c(C(=O)N2CCCC(C(=O)NCCCSC3CCCCC3)C2)cc2sccc21 (centres undefined) | active: 12.6 µM | – |
| O=C(Nc1ccccc1C(=O)N/N=C/c1ccc(F)cc1)c1ccccc1Br | – | inactive: 54.6% [at 14.3 µM] |
| Cc1sc2ncnc(SC(C)C(=O)N3c4ccccc4Sc4ccccc43)c2c1C (centres undefined) | inconclusive: 35.5 µM [inhibitor, single point] | – |
| OCCNc1ncnc2c1c(-c1ccccc1)c(-c1ccccc1)n2Cc1ccco1 | inconclusive: 29.1 µM [inhibitor, single point] | – |
| O=C(c1cc2c(s1)-c1ccccc1OC2)N1CCc2ccccc2C1 | – | inactive: 14% |
| O=C(Cn1nnc(-c2ccccc2)n1)N1CCN(c2ccc(F)cc2)CC1 | inconclusive: 12.6 µM [activator, partial curve, poor fit] | – |
| CCC(C)c1ccc2oc(-c3ccc(NC(=O)Cn4cnc5c(=O)n(C)c(=O)n(C)c54)cc3)nc2c1 (centres undefined) | inconclusive: 23.1 µM [inhibitor, single point] | – |
| O=C(CC(Nc1ccc(F)cc1)C(=O)O)c1ccccc1 (centres undefined) | inconclusive: 14.1 µM [inhibitor, single point] | – |
| CC1CCN(C(=O)c2ccccc2NC(=O)c2nsc3ccccc23)CC1 | – | inactive: 3.06% [at 46.1 µM] |
| O=C(Nc1nccs1)c1ccc(COc2ccccc2Cl)o1 | inconclusive: 5.01 µM [inhibitor, partial curve, poor fit] | – |
| CN(C)S(=O)(=O)c1cccc(C(=O)Nc2ccc(C(=O)Nc3cccc(S(N)(=O)=O)c3)cc2)c1 | – | inactive: 5.08% [at 46.1 µM] |
| CCN1CCN(c2ccc(N3CCN(C(=O)c4ccc(Br)o4)CC3)nn2)CC1 | – | inactive: 5.67% |
| Cc1cccc(-c2nc3c(cnn3-c3ccccc3)c(=O)n2-c2cccc(Cl)c2)c1 | inconclusive: 20 µM [inhibitor, single point] | – |
| O=C(CNC(=O)c1ccco1)NCc1ccc2c(c1)OCO2 | inconclusive: 0.708 µM [inhibitor, single point] | – |
| CCC(=O)Nc1ccc(NC(=O)c2c(C)nc3ccccn23)cc1 | inconclusive: 0.13 µM [inhibitor, full curve, poor fit] | – |
| O=C(Cc1ccccc1)N/N=C/c1ccc([N+](=O)[O-])s1 | inconclusive: 14.1 µM [inhibitor, single point] | – |
| CCS(=O)(=O)c1ccc2oc(Nc3ccc(OC)c(OC)c3)nc2c1 | – | inactive: -9.54% |
| CCN(C(=O)CSc1nnc(-c2ccccc2C)n1C)c1c(N)n(Cc2ccccc2)c(=O)[nH]c1=O | inconclusive: 35.5 µM [activator, partial curve, poor fit] | – |
